Data as given in PubChem BioAssay AID1053208 (Peter MacCallum Cancer Centre, 2014)

- Test: 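Find knock-downs that sensitise mouse osteosarcoma cells to doxorubicin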 (primary screen)
- Cell system: mouse osteosarcoma cells, early-passage culture from an engineered mouse model of fibroblastic bone tumour
- Reagents: siRNA pool against mouse genes, 40 nM
- Timing: about 120 h (48 h before drug, then 72 h with drug)
- Treatment: doxorubicin 100 nM for 72 h, roughly 30-40% inhibitory dose
- Measured: 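Viability read as ATP luminescence after 72 h of 100 nM doxorubicin or none, duplicate wells averaged, scaled to non-targeting siRNA, then expressed as robust z-scores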
- Scale: viability z-score with doxorubicin and doxorubicin viability vs non-targeting: higher = more viable cells under doxorubicin; viability z-score without drug: higher = more viable cells with knock-down alone; z-score of drug to no-drug ratio: higher = less drug sensitisation by knock-down
- Rule for the call: 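a pool counts as active when its viability z-score with doxorubicin is -2 or below and its z-score without drug lies between -2 and 2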
Here is an unselected part of about 17,000 reagents. In the full data, 788 (4.7%) got an active call. 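Calls rest on z-score classes alone; an extra cut-off of viability at most 70% of control was not applied to them.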 The numbers tell different reagents against one gene apart.

| Target gene | reagent no. | combined z-score class | viability z-score with doxorubicin | viability z-score without drug | z-score of drug to no-drug ratio | doxorubicin viability vs non-targeting | Outcome |
| --- | --- | --- | --- | --- | --- | --- | --- |
| Ndufs2 (NADH:ubiquinone oxidoreductase core subunit S2) | 1 | low cell count without drug only | 0.79 | -2.19 | 2.81 | 1.01 | inactive |
| Adgrg2 (adhesion G protein-coupled receptor G2) | 1 | no change with or without drug | -1.01 | -0.51 | -0.67 | 0.85 | inactive |
| Mpg (N-methylpurine-DNA glycosylase) | 1 | no change with or without drug | 1.91 | -0.17 | 2.25 | 1.11 | inactive |
| Thpo (thrombopoietin) | 1 | no change with or without drug | 0 | 1.18 | -0.67 | 0.94 | inactive |
| En1 (engrailed 1) | 1 | no change with or without drug | 0.9 | 1.52 | 0 | 1.02 | inactive |
| Celsr1 (cadherin, EGF LAG seven-pass G-type receptor 1) | 1 | no change with or without drug | -1.12 | -0.17 | -1.01 | 0.84 | inactive |
| Ccr4 (C-C motif chemokine receptor 4) | 1 | low cell count with and without drug | -2.02 | -2.02 | -0.67 | 0.76 | inactive |
| Slc25a22 | 1 | no change with or without drug | 0.67 | -0.17 | 0.9 | 1 | inactive |
| Mxd4 (Max dimerization protein 4) | 1 | no change with or without drug | 1.35 | 0.84 | 0.9 | 1.06 | inactive |
| Ube3a (ubiquitin protein ligase E3A) | 1 | no change with or without drug | -0.67 | -0.34 | -0.34 | 0.88 | inactive |
| Cyth1 (cytohesin 1) | 1 | high cell count with doxorubicin only | 2.02 | 1.18 | 1.35 | 1.12 | inactive |
| Ms4a6b (membrane-spanning 4-domains, subfamily A, member 6B) | 1 | no change with or without drug | 0.9 | -0.84 | 1.69 | 1.02 | inactive |
| Mettl2 (methyltransferase 2, methylcytidine) | 1 | no change with or without drug | -1.35 | -1.18 | -0.56 | 0.82 | inactive |
| Dtx3 (deltex 3, E3 ubiquitin ligase) | 1 | no change with or without drug | -1.35 | 0.17 | -1.46 | 0.82 | inactive |
| Flot2 (flotillin 2) | 1 | no change with or without drug | 1.35 | 1.18 | 0.67 | 1.06 | inactive |
| Ehd1 (EH-domain containing 1) | 1 | no change with or without drug | -0.67 | -0.51 | -0.22 | 0.88 | inactive |
| Ccnd1 (cyclin D1) | 1 | no change with or without drug | -0.67 | -0.51 | -0.22 | 0.88 | inactive |
| Cldn11 (claudin 11) | 1 | no change with or without drug | 0.9 | -0.17 | 1.24 | 1.02 | inactive |
| Rgs10 (regulator of G-protein signalling 10) | 1 | no change with or without drug | 0.34 | -0.51 | 0.79 | 0.97 | inactive |

A few values from the list.
For “viability z-score without drug”, Ccr4 (C-C motif chemokine receptor 4) shows -2.02
Ehd1 (EH-domain containing 1), viability z-score with doxorubicin → -0.67
Cyth1 (cytohesin 1), z-score of drug to no-drug ratio → 1.35
Ube3a (ubiquitin protein ligase E3A), doxorubicin viability vs non-targeting = 0.88

More records follow.
| Target gene | reagent no. | combined z-score class | viability z-score with doxorubicin | viability z-score without drug | z-score of drug to no-drug ratio | doxorubicin viability vs non-targeting | Outcome |
| --- | --- | --- | --- | --- | --- | --- | --- |
| Elac2 (elaC ribonuclease Z 2) | 1 | no change with or without drug | 1.24 | 1.52 | 0.34 | 1.05 | inactive |
| Creg2 (cellular repressor of E1A-stimulated genes 2) | 1 | no change with or without drug | -0.45 | 0.51 | -0.67 | 0.9 | inactive |
| Banp (BTG3 associated nuclear protein) | 1 | no change with or without drug | 1.24 | 0.34 | 1.12 | 1.05 | inactive |
| 2610524H06Rik (RIKEN cDNA 2610524H06 gene) | 1 | no change with or without drug | -1.35 | -1.35 | -0.45 | 0.82 | inactive |
| Tmem67 (transmembrane protein 67) | 1 | no change with or without drug | 0.56 | 1.18 | -0.11 | 0.99 | inactive |
| Hesx1 (homeobox gene expressed in ES cells) | 1 | no change with or without drug | 0.56 | 1.18 | -0.11 | 0.99 | inactive |
| Ostn (osteocrin) | 1 | no change with or without drug | -1.8 | -0.51 | -1.46 | 0.78 | inactive |
| Or6c88 (olfactory receptor family 6 subfamily C member 88) | 1 | no change with or without drug | 0.45 | -1.35 | 1.69 | 0.98 | inactive |
| Smpd2 (sphingomyelin phosphodiesterase 2, neutral) | 1 | no change with or without drug | 1.35 | 0.34 | 1.24 | 1.06 | inactive |
| Smcp (sperm mitochondria-associated cysteine-rich protein) | 1 | no change with or without drug | -1.57 | -0.84 | -1.01 | 0.8 | inactive |
| Rps6 (ribosomal protein S6) | 1 | low cell count with and without drug | -6.74 | -5.56 | -4.83 | 0.34 | inactive |
| Plb1 (phospholipase B1) | 1 | no change with or without drug | 0.79 | 1.18 | 0.11 | 1.01 | inactive |
| Parva (parvin, alpha) | 1 | no change with or without drug | -0.45 | -0.51 | 0 | 0.9 | inactive |
| Creb3l1 (cAMP responsive element binding protein 3-like 1) | 1 | no change with or without drug | 1.01 | 1.85 | -0.11 | 1.03 | inactive |
| 4932414J04Rik (RIKEN cDNA 4932414J04 gene) | 1 | high cell count without drug only | 0.11 | 2.19 | -1.12 | 0.95 | inactive |
| Gmnn (geminin) | 1 | low cell count with doxorubicin only | -2.02 | -1.52 | -1.12 | 0.76 | active |
| Atf7ip2 (activating transcription factor 7 interacting protein 2) | 1 | no change with or without drug | 0.67 | 0.67 | 0.34 | 1 | inactive |
| Atf7ip2 (activating transcription factor 7 interacting protein 2) | 2 | no change with or without drug | 0.34 | 1.52 | -0.56 | 0.97 | inactive |
| Eln (elastin) | 1 | no change with or without drug | 0 | 0 | 0.11 | 0.94 | inactive |
| Tmem220 (transmembrane protein 220) | 1 | low cell count with doxorubicin only | -3.82 | -0.51 | -3.71 | 0.6 | active |
| Atg7 (autophagy related 7) | 1 | no change with or without drug | -0.56 | -0.17 | -0.34 | 0.89 | inactive |
| Cfap161 (cilia and flagella associated protein 161) | 1 | no change with or without drug | 1.01 | 1.52 | 0.11 | 1.03 | inactive |
| Sult2b1 (sulfotransferase family, cytosolic, 2B, member 1) | 1 | no change with or without drug | 0 | 0.84 | -0.45 | 0.94 | inactive |
| Gnl1 (guanine nucleotide binding protein-like 1) | 1 | no change with or without drug | -1.57 | -0.51 | -1.24 | 0.8 | inactive |
| Mela (melanoma antigen) | 1 | no change with or without drug | 1.8 | 0.84 | 1.35 | 1.1 | inactive |
| Pcdha12 (protocadherin alpha 12) | 1 | no change with or without drug | -0.9 | -1.52 | 0.22 | 0.86 | inactive |
| C3 (complement component 3) | 1 | no change with or without drug | -0.67 | -0.17 | -0.45 | 0.88 | inactive |
| Pot1a (protection of telomeres 1A) | 1 | no change with or without drug | 1.24 | 1.52 | 0.34 | 1.05 | inactive |
| Ackr5 (atypical chemokine receptor 5) | 1 | no change with or without drug | 1.35 | 0.67 | 1.01 | 1.06 | inactive |
| Or1x2 (olfactory receptor family 1 subfamily X member 2) | 1 | no change with or without drug | 1.35 | 1.18 | 0.67 | 1.06 | inactive |
| Or8b53 (olfactory receptor family 8 subfamily B member 53) | 1 | no change with or without drug | -1.57 | -1.18 | -0.79 | 0.8 | inactive |
